Record: PubChem BioAssay AID1259315 (Drosophila RNAi Screening Center, 2017)
Test: 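Fly genes changing cellular ATP after a day in high zinc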 (primary screen). Cell system: Drosophila S2R+ cells. Reagents: long dsRNA against Drosophila genes. Duration: 5 days (4 days knock-down, then 1 day with zinc). Treatment: zinc chloride added to 15 mM final for 1 day. Read-out: 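Luminescent measure of total cellular ATP as a survival proxy, read after 4 days of knock-down plus 1 day in 15 mM zinc chloride; z-score averaged across two replicate plates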. Scale: mean ATP z-score: higher = more ATP, more cells surviving zinc. Rule for the call: 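a reagent is active if its z-score lies beyond 1.5 in either direction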.
The deposit covers 418 reagents; this is an unselected part. 17 of all reagents (4.1%) were called active. 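z-scores average two replicate plates; all hits raised ATP and none lowered it.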 The record does not give: the amount of reagent.

CG6638 [DRSC10680] — mean ATP z-score = -0.236; Call = inactive
CG6638 [DRSC24246] — mean ATP z-score = -0.307; Call = inactive
beta-Man [DRSC12208] — mean ATP z-score = 0.207; Call = inactive
beta-Man [DRSC12209] — mean ATP z-score = -0.0372; Call = inactive
Hmgcl [DRSC02051] — mean ATP z-score = -0.0577; Call = inactive
Acox57D-d [DRSC04561] — mean ATP z-score = -0.0537; Call = inactive
Acox57D-d [DRSC30108] — mean ATP z-score = 1.75; Call = active
Parp1 [DRSC07725] — mean ATP z-score = -0.318; Call = inactive
Parp1 [DRSC07778] — mean ATP z-score = 0.00234; Call = inactive
Parp1 [DRSC07780] — mean ATP z-score = -0.0693; Call = inactive
Rpt6R [DRSC15431] — mean ATP z-score = -0.036; Call = inactive
Rpt6R [DRSC41241] — mean ATP z-score = -0.286; Call = inactive
Npc2f [DRSC15980] — mean ATP z-score = 0.0968; Call = inactive
ry [DRSC17048] — mean ATP z-score = 0.106; Call = inactive
ry [DRSC27399] — mean ATP z-score = -0.243; Call = inactive
ry [DRSC41026] — mean ATP z-score = -0.209; Call = inactive
mv [DRSC08208] — mean ATP z-score = -0.14; Call = inactive
mv [DRSC28733] — mean ATP z-score = 0.668; Call = inactive
mv [DRSC33279] — mean ATP z-score = -0.149; Call = inactive
betaGlu [DRSC24889] — mean ATP z-score = -0.361; Call = inactive
betaGlu [DRSC39080] — mean ATP z-score = -0.335; Call = inactive
betaGlu [DRSC41080] — mean ATP z-score = -0.291; Call = inactive
Arc42 [DRSC14340] — mean ATP z-score = -0.188; Call = inactive
Arc42 [DRSC31950] — mean ATP z-score = -0.167; Call = inactive
Arc42 [DRSC31951] — mean ATP z-score = -0.0483; Call = inactive
CG5731 [DRSC02883] — mean ATP z-score = -0.111; Call = inactive
CG5731 [DRSC25969] — mean ATP z-score = -0.425; Call = inactive
CG5731 [DRSC37705] — mean ATP z-score = -0.373; Call = inactive
CG15533 [DRSC15069] — mean ATP z-score = 0.00315; Call = inactive
CG15533 [DRSC30031] — mean ATP z-score = -0.347; Call = inactive
Vps28 [DRSC06168] — mean ATP z-score = 0.476; Call = inactive
Vps28 [DRSC31695] — mean ATP z-score = 0.177; Call = inactive
Vps28 [DRSC31696] — mean ATP z-score = -0.199; Call = inactive
Xpc [DRSC07654] — mean ATP z-score = -0.0492; Call = inactive
Sod3 [DRSC07324] — mean ATP z-score = -0.0786; Call = inactive
Sod3 [DRSC26222] — mean ATP z-score = -0.423; Call = inactive
Ect3 [DRSC15462] — mean ATP z-score = -0.148; Call = inactive
Ect3 [DRSC25392] — mean ATP z-score = -0.456; Call = inactive
Ect3 [DRSC35713] — mean ATP z-score = -0.348; Call = inactive
Ctr1A [DRSC18336] — mean ATP z-score = 0.0335; Call = inactive
Ctr1A [DRSC40310] — mean ATP z-score = -0.113; Call = inactive
Ctr1A [DRSC40902] — mean ATP z-score = -0.041; Call = inactive
Sod1 [DRSC11286] — mean ATP z-score = -0.254; Call = inactive
Sod1 [DRSC34593] — mean ATP z-score = -0.274; Call = inactive
Sod1 [DRSC40766] — mean ATP z-score = -0.316; Call = inactive
ATP6AP2 [DRSC16420] — mean ATP z-score = -0.233; Call = inactive
ATP6AP2 [DRSC35549] — mean ATP z-score = 0.0216; Call = inactive
ATP6AP2 [DRSC39882] — mean ATP z-score = -0.379; Call = inactive

Copied from the entries so far for reference:
Rpt6R [DRSC41241] — mean ATP z-score = -0.286; Call = inactive
Npc2f [DRSC15980] — mean ATP z-score = 0.0968; Call = inactive
ry [DRSC17048] — mean ATP z-score = 0.106; Call = inactive
ry [DRSC27399] — mean ATP z-score = -0.243; Call = inactive
ry [DRSC41026] — mean ATP z-score = -0.209; Call = inactive
mv [DRSC08208] — mean ATP z-score = -0.14; Call = inactive
mv [DRSC28733] — mean ATP z-score = 0.668; Call = inactive
